This passage reports conjugation yield results from US20250295804A1 (Shenzhen Enduring Biotech, Ltd., priority 2022, published 2025).

This data set can be described thus: general procedure: solution-phase peptide synthesis; EDCI/HOBt. The settings on record: conjugation step.

On to 20k mPEG-Lys(Mal)-(MMAE)4, for which the conjugation yield was found to be 22%.

30kmPEG-Lys(Mal)-(MMAE)2: the conjugation yield is 47%.
